PubChem BioAssay AID1259289 | Sanger Institute – 2017

- Test: 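Kinase-wide silencing tested with three anchor drugs to reveal synergistic lethal pairs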 (primary screen)
- Cells: human LS513 colorectal cancer cells
- Reagent: siRNA pool against human genes
- Treatment: anchor drug BYL719 at 1 µM, cetuximab at 5 µg/ml or trametinib at 10 nM, or DMSO vehicle alone; exposure time not given
- Read-out: 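Cell survival as a fraction of the non-targeting pool, replicate means; robust z-score for silencing alone under DMSO; synergy score for each of BYL719, cetuximab and trametinib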
- Scale: robust z-score, siRNA alone (DMSO): higher = more viable cells; strongly negative means essential
- Call rule: 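Called essential when silencing alone under DMSO gives a robust z-score below -3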
- Meaning of the calls: active = essential (knock-down alone); inactive = not essential
The deposit covers 794 reagents; below is a random part of them. 16 of all reagents (2%) were called active. 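Active marks cell loss from silencing alone; drug synergy shows only in the synergy scores, not the calls.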 Not all columns of the deposit are shown. No sequences are given here. The record does not give: the amount of reagent, the time to read-out.

gene	robust z-score, siRNA alone (DMSO)	Call
GUK1 (guanylate kinase 1)	0.561	inactive
UCK2 (uridine-cytidine kinase 2)	0.561	inactive
CKS2 (CDC28 protein kinase regulatory subunit 2)	0.561	inactive
CKMT2 (creatine kinase, mitochondrial 2)	0.561	inactive
KCNH8 (potassium voltage-gated channel subfamily H member 8)	-0.581	inactive
CHKB (choline kinase beta)	0.561	inactive
MAPK11 (mitogen-activated protein kinase 11)	0.561	inactive
MAP2K1 (mitogen-activated protein kinase kinase 1)	0.561	inactive
TYK2 (tyrosine kinase 2)	-2.4	inactive
BMPR1A (bone morphogenetic protein receptor type 1A)	-0.191	inactive
MAP4K4 (mitogen-activated protein kinase kinase kinase kinase 4)	0.561	inactive
NRAS (NRAS proto-oncogene, GTPase)	0.561	inactive
FGR (FGR proto-oncogene, Src family tyrosine kinase)	-0.861	inactive
MAP2K3 (mitogen-activated protein kinase kinase 3)	0.561	inactive
PCK1 (phosphoenolpyruvate carboxykinase 1)	0.547	inactive
NME5 (NME/NM23 family member 5)	0.561	inactive
PIK3CG	0.561	inactive
CAMK1D (calcium/calmodulin dependent protein kinase ID)	0.561	inactive
ACVR2B (activin A receptor type 2B)	0.561	inactive
PANK2 (pantothenate kinase 2)	0.561	inactive
SGK3 (serum/glucocorticoid regulated kinase family member 3)	0.201	inactive
MELK (maternal embryonic leucine zipper kinase)	0.561	inactive
TRPM6	0.561	inactive
MAST3 (microtubule associated serine/threonine kinase 3)	0.561	inactive
CASK (calcium/calmodulin dependent serine protein kinase)	-0.791	inactive
ALPK1 (alpha kinase 1)	-1.86	inactive
ALPK3 (alpha kinase 3)	-0.465	inactive
CILK1 (ciliogenesis associated kinase 1)	0.561	inactive
PMVK (phosphomevalonate kinase)	0.000103	inactive
UCKL1 (uridine-cytidine kinase 1 like 1)	0.561	inactive
VRK3 (VRK serine/threonine kinase 3)	0.561	inactive
TGFBR1 (transforming growth factor beta receptor 1)	0.561	inactive
NEK5 (NIMA related kinase 5)	0.561	inactive
TP53RK (TP53 regulating kinase)	0.0251	inactive
GSK3A (glycogen synthase kinase 3 alpha)	0.561	inactive
GCK (glucokinase)	-1.79	inactive
DDR1 (discoidin domain receptor tyrosine kinase 1)	-0.884	inactive
PRKAA1 (protein kinase AMP-activated catalytic subunit alpha 1)	0.561	inactive
PTK6 (protein tyrosine kinase 6)	0.561	inactive
DGKD (diacylglycerol kinase delta)	0.561	inactive
MAPK15 (mitogen-activated protein kinase 15)	0.561	inactive
BRSK1 (BR serine/threonine kinase 1)	0.561	inactive
MYO3B (myosin IIIB)	0.198	inactive
NME6 (NME/NM23 nucleoside diphosphate kinase 6)	-2.26	inactive
DGKH (diacylglycerol kinase eta)	0.223	inactive
EGFR (epidermal growth factor receptor)	-0.959	inactive
LMTK1 (lemur tail kinase 1)	-1.16	inactive
MAPKAPK2 (MAPK activated protein kinase 2)	0.052	inactive
MAPK14 (mitogen-activated protein kinase 14)	0.561	inactive
CDC73 (cell division cycle 73)	-1.45	inactive
PHKA1 (phosphorylase kinase regulatory subunit alpha 1)	0.561	inactive
KHK (ketohexokinase)	-0.389	inactive
TEC (tec protein tyrosine kinase)	0.561	inactive
PKMYT1 (protein kinase, membrane associated tyrosine/threonine 1)	0.561	inactive
AK4 (adenylate kinase 4)	0.561	inactive
BMAL1 (basic helix-loop-helix ARNT like 1)	-1.16	inactive
DGKQ (diacylglycerol kinase theta)	0.561	inactive
ACVR1B (activin A receptor type 1B)	0.561	inactive
PKN1 (protein kinase N1)	0.561	inactive
WNK3 (WNK lysine deficient protein kinase 3)	0.561	inactive
NTRK1 (neurotrophic receptor tyrosine kinase 1)	-2.06	inactive
FN3KRP (fructosamine 3 kinase related protein)	-2.43	inactive
GRK5 (G protein-coupled receptor kinase 5)	0.561	inactive
